Data taken from the supplement of paper PMC10849652.
The other results are listed elsewhere or left out. Residues, ends and D or L forms follow the SMILES beside them. *: point of attachment. Cbz = O=C(OCc1ccccc1)*

By UniProt entry, the sequences of proteins in these tests, tags left out. Where a name states a change or a piece, a line headed by the entry shows the natural chain unless it says otherwise.
UniProt P19634, whole entry, looked up: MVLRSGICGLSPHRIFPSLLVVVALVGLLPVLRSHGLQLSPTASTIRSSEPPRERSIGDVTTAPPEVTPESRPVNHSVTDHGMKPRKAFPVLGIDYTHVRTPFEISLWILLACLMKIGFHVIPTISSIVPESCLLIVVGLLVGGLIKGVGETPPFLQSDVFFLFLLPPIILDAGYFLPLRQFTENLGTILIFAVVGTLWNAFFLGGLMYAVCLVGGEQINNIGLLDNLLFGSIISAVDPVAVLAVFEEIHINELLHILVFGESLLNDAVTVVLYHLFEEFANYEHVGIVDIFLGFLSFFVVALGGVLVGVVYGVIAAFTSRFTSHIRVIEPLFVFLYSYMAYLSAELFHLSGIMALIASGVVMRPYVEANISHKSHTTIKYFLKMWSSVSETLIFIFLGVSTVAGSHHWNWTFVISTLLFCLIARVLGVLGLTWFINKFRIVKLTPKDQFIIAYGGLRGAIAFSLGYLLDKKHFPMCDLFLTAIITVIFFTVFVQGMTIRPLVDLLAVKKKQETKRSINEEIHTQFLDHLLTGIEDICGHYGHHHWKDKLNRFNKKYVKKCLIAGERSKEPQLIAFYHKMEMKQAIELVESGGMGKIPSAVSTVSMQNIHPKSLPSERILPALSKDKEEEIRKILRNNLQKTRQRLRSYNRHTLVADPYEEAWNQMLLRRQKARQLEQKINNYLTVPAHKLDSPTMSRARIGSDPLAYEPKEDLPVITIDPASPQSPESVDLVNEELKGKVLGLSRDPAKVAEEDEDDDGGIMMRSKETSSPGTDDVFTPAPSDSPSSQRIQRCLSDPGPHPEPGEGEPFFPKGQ
UniProt Q9H3E2: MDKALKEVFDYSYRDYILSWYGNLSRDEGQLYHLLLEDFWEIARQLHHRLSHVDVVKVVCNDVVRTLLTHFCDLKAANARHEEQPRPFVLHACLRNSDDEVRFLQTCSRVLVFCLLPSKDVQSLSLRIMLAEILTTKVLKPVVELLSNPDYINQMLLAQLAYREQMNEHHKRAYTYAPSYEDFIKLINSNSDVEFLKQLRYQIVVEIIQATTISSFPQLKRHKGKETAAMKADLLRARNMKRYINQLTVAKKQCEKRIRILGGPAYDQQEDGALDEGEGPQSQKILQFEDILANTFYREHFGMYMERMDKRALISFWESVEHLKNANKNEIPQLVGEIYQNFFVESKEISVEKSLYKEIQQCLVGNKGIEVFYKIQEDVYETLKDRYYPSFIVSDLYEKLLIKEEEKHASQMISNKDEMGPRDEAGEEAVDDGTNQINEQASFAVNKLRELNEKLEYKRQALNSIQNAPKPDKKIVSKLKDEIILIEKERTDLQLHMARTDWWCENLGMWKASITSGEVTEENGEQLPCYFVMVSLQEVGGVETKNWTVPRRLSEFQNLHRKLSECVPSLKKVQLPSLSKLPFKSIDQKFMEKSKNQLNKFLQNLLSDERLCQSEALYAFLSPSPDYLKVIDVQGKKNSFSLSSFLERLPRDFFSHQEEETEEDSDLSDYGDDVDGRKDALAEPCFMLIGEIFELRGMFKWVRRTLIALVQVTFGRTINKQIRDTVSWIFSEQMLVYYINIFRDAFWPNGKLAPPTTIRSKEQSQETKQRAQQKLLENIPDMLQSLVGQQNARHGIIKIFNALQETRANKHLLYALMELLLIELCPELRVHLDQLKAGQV
UniProt Q8N5G0: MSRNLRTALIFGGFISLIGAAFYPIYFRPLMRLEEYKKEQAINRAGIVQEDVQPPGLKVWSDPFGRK
UniProt Q86US8: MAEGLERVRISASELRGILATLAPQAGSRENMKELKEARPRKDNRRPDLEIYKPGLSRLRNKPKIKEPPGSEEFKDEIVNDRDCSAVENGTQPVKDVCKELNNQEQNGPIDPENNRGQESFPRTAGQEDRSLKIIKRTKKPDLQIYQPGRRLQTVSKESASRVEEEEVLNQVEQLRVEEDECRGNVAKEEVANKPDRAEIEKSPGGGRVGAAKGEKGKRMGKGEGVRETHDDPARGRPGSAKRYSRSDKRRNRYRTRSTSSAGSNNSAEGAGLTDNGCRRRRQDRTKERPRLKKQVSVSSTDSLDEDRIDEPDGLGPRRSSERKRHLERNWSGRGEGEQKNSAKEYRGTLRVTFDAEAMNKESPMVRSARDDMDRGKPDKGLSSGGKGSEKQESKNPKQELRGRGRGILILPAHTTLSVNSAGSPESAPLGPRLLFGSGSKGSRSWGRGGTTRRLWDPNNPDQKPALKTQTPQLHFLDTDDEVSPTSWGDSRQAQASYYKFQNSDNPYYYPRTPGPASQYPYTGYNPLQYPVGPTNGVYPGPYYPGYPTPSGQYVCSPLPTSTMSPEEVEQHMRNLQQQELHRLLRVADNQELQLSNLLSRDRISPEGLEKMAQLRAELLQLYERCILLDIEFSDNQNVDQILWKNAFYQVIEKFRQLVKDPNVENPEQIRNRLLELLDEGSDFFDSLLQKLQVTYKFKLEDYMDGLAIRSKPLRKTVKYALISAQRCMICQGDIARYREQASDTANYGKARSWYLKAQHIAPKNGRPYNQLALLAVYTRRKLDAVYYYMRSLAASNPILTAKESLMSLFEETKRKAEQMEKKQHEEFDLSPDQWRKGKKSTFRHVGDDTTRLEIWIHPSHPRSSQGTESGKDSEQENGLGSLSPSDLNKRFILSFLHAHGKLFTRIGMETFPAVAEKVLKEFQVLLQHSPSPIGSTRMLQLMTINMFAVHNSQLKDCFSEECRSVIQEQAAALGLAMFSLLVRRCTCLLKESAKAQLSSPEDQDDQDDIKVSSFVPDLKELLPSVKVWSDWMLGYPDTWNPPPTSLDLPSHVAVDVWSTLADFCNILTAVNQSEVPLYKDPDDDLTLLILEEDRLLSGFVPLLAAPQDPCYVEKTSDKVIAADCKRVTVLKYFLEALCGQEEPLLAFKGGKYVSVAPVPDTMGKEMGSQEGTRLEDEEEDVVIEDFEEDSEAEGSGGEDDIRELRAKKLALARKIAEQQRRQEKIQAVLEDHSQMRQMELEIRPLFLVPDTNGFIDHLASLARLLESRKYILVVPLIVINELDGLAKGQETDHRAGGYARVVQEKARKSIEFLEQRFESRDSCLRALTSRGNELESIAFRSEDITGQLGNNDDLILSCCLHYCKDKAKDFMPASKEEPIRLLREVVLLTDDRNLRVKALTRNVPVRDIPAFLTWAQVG
UniProt Q5SQN1: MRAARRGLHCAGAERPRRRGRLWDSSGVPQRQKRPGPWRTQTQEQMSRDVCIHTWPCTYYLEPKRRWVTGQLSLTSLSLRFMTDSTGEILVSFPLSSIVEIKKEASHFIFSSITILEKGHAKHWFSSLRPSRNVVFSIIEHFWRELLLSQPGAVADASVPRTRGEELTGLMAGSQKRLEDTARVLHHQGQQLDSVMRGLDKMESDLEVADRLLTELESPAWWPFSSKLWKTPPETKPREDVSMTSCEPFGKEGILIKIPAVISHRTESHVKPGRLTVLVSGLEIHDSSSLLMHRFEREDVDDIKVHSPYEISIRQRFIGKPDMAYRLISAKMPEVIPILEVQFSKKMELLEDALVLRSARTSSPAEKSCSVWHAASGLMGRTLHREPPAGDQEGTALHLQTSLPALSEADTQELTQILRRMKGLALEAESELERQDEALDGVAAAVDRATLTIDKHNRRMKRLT
UniProt Q96GM5, whole entry, looked up: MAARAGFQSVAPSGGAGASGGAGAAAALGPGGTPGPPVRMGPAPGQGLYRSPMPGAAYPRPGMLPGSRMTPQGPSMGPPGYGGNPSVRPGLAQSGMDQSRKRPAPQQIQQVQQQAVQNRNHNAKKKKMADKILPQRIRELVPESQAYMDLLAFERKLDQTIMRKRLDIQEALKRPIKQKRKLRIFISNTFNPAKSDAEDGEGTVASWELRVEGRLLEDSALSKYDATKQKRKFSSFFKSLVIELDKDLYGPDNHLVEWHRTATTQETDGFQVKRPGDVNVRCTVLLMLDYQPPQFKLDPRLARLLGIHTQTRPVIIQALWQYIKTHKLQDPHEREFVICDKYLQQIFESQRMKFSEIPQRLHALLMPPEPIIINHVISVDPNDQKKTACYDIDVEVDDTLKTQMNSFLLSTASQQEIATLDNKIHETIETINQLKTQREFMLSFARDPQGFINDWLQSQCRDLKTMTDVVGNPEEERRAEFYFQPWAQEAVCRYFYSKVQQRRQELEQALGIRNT
UniProt P0DMW3: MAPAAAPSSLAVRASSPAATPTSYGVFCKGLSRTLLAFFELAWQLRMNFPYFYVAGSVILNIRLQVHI
UniProt Q9NZC9: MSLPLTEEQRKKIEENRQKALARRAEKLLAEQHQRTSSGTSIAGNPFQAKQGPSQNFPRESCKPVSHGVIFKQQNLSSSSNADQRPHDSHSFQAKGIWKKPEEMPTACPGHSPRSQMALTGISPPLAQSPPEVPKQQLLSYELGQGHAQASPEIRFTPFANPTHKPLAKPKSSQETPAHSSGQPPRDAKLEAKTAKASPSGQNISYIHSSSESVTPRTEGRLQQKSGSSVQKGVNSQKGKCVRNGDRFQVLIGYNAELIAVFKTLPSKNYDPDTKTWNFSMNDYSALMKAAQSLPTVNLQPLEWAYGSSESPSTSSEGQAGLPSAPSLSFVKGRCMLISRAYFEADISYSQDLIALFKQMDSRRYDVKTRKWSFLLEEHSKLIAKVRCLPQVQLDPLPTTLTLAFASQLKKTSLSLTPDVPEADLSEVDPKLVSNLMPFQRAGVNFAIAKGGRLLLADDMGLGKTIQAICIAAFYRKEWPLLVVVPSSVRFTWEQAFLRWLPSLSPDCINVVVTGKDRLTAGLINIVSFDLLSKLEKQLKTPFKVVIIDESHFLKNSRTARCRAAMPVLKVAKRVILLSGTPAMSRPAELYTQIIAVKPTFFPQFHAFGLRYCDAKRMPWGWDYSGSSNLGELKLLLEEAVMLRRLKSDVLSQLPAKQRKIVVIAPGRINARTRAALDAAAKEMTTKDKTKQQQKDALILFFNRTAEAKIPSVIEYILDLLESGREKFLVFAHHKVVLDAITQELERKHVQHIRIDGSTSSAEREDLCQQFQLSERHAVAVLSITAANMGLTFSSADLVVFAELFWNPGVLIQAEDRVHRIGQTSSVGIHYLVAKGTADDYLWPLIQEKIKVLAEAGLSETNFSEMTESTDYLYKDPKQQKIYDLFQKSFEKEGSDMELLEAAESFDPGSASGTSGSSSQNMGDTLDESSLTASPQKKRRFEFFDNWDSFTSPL
UniProt P35712: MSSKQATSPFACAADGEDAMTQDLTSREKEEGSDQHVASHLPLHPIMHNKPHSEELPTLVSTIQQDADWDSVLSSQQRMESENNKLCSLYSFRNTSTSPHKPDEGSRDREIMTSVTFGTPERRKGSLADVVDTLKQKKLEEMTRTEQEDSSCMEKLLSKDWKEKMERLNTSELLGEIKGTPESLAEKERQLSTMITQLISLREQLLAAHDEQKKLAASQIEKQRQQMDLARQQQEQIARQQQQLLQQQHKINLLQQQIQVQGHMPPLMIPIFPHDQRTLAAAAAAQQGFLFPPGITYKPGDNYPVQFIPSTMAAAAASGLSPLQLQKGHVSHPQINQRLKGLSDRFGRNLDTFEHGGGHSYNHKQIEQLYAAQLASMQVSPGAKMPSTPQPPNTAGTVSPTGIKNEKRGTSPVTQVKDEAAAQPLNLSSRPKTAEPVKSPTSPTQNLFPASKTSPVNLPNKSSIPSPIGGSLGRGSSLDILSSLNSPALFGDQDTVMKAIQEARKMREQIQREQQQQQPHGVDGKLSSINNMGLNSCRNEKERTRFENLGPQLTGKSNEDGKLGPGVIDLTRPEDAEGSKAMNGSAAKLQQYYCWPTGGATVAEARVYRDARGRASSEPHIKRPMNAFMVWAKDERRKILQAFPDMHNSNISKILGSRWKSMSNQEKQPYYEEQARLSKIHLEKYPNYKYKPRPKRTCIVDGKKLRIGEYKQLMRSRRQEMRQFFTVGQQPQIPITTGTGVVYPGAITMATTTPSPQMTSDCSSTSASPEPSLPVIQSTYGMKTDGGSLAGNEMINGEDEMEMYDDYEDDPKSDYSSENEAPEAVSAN
UniProt Q86T20: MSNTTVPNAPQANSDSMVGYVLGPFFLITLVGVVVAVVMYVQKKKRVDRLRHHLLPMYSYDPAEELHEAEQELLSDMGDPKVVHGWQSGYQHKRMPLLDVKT
UniProt Q9H7B4: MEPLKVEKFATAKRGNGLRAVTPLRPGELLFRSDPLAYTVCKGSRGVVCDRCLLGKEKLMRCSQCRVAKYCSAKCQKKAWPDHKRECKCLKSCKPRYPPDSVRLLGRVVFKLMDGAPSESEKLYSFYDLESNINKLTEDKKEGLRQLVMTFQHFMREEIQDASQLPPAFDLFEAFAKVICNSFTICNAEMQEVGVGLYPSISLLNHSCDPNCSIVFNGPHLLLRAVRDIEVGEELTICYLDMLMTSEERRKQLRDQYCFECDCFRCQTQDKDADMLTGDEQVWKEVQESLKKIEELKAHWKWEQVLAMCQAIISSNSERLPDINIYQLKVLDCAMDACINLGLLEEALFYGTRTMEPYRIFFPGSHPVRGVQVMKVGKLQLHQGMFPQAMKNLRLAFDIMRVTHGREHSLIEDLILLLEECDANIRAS
UniProt Q0VAQ4: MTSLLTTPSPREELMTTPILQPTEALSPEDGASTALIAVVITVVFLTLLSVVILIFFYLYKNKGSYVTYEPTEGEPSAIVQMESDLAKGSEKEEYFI

What was measured:
Assay in all cases: log2 fold change, soluble protein after heating vs DMSO (PISA); higher = thermal stabilisation; K562 cells, 10 uM, 30 min; active = over 0.2 and 3.5 SD of the protein, either way, in both replicates (recomputed)
IRAK-1-4 Inhibitor I = compound: C1COCCN1CCN2C3=CC=CC=C3N=C2NC(=O)C4=CC(=CC=C4)[N+](=O)[O-] [IRAK-1-4 Inhibitor I]
How it was run: (§1)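 Thermal stability values are relative to control samples and come from duplicates. They are expressed as log2 fold changes. For measurement, K562 cells (2×10^6 cells/mL) received 10 μM compound for 30 min, and aliquots were heated for 3 min over 48°C-58°C, pooled, and extracted at 4°C in PBS with 0.5% NP-40. Soluble protein, the supernatant after 21,000xg for 90 min, was quantified by TMTpro 16plex LC-MS/MS with equalised channel sums.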

ibrutinib = compound: C=CC(=O)N1CCC[C@@H](n2nc(-c3ccc(Oc4ccccc4)cc3)c3c(N)ncnc32)C1 [ibrutinib]
How it was run: as §1

[1] = compound: CC(=O)c1cnc2ccc(-c3cc(Cl)c(O)c(Cl)c3)nc2c1N[C@H]1CC[C@H](CN(C)C)CC1
How it was run: as §1

[2] = compound: CC(C)(O)CC(=O)NCCn1ccc2ncnc(Nc3ccc(Oc4cccc(C(F)(F)F)c4)c(Cl)c3)c21
How it was run: as §1

[3] = compound: CC(C)C1=C2N=C(C=C(N2N=C1)NCC3=CC=CC=C3)NCCCCCCN
How it was run: as §1

pinometostat = compound: CC(C)N(C[C@H]1O[C@@H](n2cnc3c(N)ncnc32)[C@H](O)[C@@H]1O)[C@H]1C[C@@H](CCc2nc3cc(C(C)(C)C)ccc3[nH]2)C1 [pinometostat]
How it was run: as §1

[4] = compound: CC1=C(C(CC(=O)N1)C2=CC=C(C=C2)C(F)(F)F)C(=O)NC3=C(C=C4C(=C3)C=NN4)F
How it was run: as §1

[5] = compound: CC1=C(C2=C(C=C1)C(=O)C3=CC=CC=C3N2CCCN)C
How it was run: as §1

ralimetinib = compound: CC(C)(C)Cn1c(N)nc2ccc(-c3[nH]c(C(C)(C)C)nc3-c3ccc(F)cc3)nc21 [ralimetinib]
How it was run: as §1

[6] = compound: CC(C)C[C@@H](C=O)NC(=O)[C@H](CC(C)C)NC(=O)[C@H](CC(C)C)NC(=O)OCc1ccccc1
How it was run: as §1

Measured: log2 fold change

SLC9A1 (UniProt P19634)
inactive: IRAK-1-4 Inhibitor I -0.017 | ibrutinib -0.001 | [1] 0.018 | [2] -0.04 | [3] -0.004 | pinometostat 0.048 | [4] -0.052 | [5] -0.1

SNX2 isoform 2 (UniProt O60749)
inactive: IRAK-1-4 Inhibitor I 0.091 | ibrutinib 0.151 | [1] -0.039 | [2] -0.377 | pinometostat -0.094

SNX27 (UniProt Q96L92)
inactive: IRAK-1-4 Inhibitor I -0.055 | [1] -0.084 | ralimetinib 0.284 | [2] -0.042 | [3] -0.08 | [6] 0.116 | pinometostat 0.432 | [5] -0.02

Taken from the results shown (two entries):
SNX2 isoform 2 (UniProt O60749)
inactive: IRAK-1-4 Inhibitor I 0.091 | ibrutinib 0.151 | [1] -0.039 | [2] -0.377 | pinometostat -0.094

SNX27 (UniProt Q96L92)
inactive: IRAK-1-4 Inhibitor I -0.055 | [1] -0.084 | ralimetinib 0.284 | [2] -0.042 | [3] -0.08 | [6] 0.116 | pinometostat 0.432 | [5] -0.02

Later entries.

SP100 isoform 4 (UniProt P23497)
inactive: IRAK-1-4 Inhibitor I 0.006 | ibrutinib -0.012 | [1] 0.074 | ralimetinib 0.019 | [2] 0.011 | [3] -0.015 | [6] -0.07 | pinometostat -0.035 | [5] -0.1

SNRPD2 (UniProt K7EJB5)
inactive: IRAK-1-4 Inhibitor I -0.124 | ibrutinib -0.095 | [1] -0.004 | ralimetinib -0.221 | [6] 0.128 | pinometostat -0.053 | [4] 0.026 | [5] 0.095

SNX16 (UniProt P57768)
inactive: IRAK-1-4 Inhibitor I 0.014 | ibrutinib 0.158 | ralimetinib -0.044 | [2] -0.114 | [3] -0.057 | [6] 0.19 | pinometostat 0.072 | [4] 0.126

SP4 (UniProt Q02446)
inactive: IRAK-1-4 Inhibitor I 0.011 | ralimetinib -0.3 | [6] 0.175 | pinometostat -0.035 | [4] 0.215 | [5] -0.063

SNX25 (UniProt Q9H3E2)
inactive: IRAK-1-4 Inhibitor I -0.032 | [1] -0.115 | [3] -0.19 | pinometostat -0.041 | [4] -0.236

SOX5 (UniProt P35711)
inactive: IRAK-1-4 Inhibitor I 0.067 | ibrutinib 0.115 | [1] -0.028 | ralimetinib 0.037 | [3] -0.086 | [6] 0.368 | pinometostat -0.088 | [5] -0.081

SMPDL3A (UniProt Q92484)
inactive: [2] -0.011 | [5] 0.242

SMIM20 isoform 2 (UniProt Q8N5G0)
inactive: ibrutinib -0.01 | [1] -0.023 | ralimetinib -0.056 | [2] -0.061 | [3] 0.024 | [6] 0.006 | [5] -0.058

SNRK (UniProt Q9NRH2)
inactive: IRAK-1-4 Inhibitor I -0.126 | pinometostat -0.087

SMG6 (UniProt Q86US8)
inactive: ibrutinib 0.179 | [2] -0.206 | [4] 0.18 | [5] 0.136

SNX13 (UniProt Q9Y5W8)
inactive: ibrutinib 0.001 | ralimetinib 0.12 | [2] -0.105 | [3] -0.31 | [6] -0.02

SNX4 (UniProt O95219)
inactive: ralimetinib 0.13 | [6] 0.116

SP6 (UniProt Q3SY56)
inactive: ibrutinib -0.036 | [1] 0.061 | ralimetinib -0.321 | [2] 0.081 | [3] 0.051 | [6] 0.191 | [4] -0.103 | [5] -0.04

SNAP23 isoform 2 (UniProt O00161)
inactive: IRAK-1-4 Inhibitor I 0.112 | [2] 0.14 | [3] 0.401 | pinometostat -0.232 | [5] -0.168

SMIM13 (UniProt P0DJ93)
inactive: ibrutinib -0.088 | ralimetinib -0.114 | [6] -0.201 | [4] 0.058

SMARCA2 (UniProt P51531)
inactive: ibrutinib -0.174 | [1] 0.023 | ralimetinib -0.022 | [3] 0.142 | [6] 0.077 | [4] 0.053

SMARCB1 (UniProt Q12824)
inactive: IRAK-1-4 Inhibitor I -0.082 | pinometostat 0.179 | [5] -0.031

SNAP47 (UniProt Q5SQN1)
inactive: [2] 0.037 | [3] -0.186

SMR3B (UniProt P02814)
inactive: ibrutinib -0.153 | [4] -0.299

SNX18 (UniProt Q96RF0)
inactive: IRAK-1-4 Inhibitor I 0.199 | [2] 0.017 | [3] -0.046 | pinometostat -0.123

SMARCD1 (UniProt Q96GM5)
inactive: [3] -0.057

SMIM10L1 (UniProt P0DMW3)
inactive: [3] -0.288

SMARCAL1 (UniProt Q9NZC9)
inactive: ralimetinib -0.085 | [3] -0.172 | [6] 0.173

SNRPC (UniProt Q5TAL2)
inactive: ibrutinib 0.02 | [1] -0.025 | ralimetinib 0.114 | [2] -0.183 | [3] 0.266 | [6] 0.082 | [4] -0.052 | [5] 0.013

SOX6 (UniProt P35712)
inactive: ralimetinib -0.028 | [6] 0.207

SNTB2 (UniProt Q13425)
inactive: ibrutinib -0.116 | [1] -0.106 | ralimetinib 0.195 | [2] -0.053 | [6] 0.152 | [4] -0.056 | [5] 0.15

SMIM19 (UniProt Q96E16)
inactive: [1] 0.228 | ralimetinib 0 | [6] -0.104 | [5] -0.168

SLC9A6 isoform 3 (UniProt Q92581)
inactive: ibrutinib -0.012 | [1] 0.004 | [3] 0.051 | [5] 0.075

SNX30 (UniProt Q5VWJ9)
inactive: [2] -0.009

SMIM29 (UniProt Q86T20)
inactive: [3] -0.024

SMTN isoform 6 (UniProt P53814)
inactive: [2] 0.06 | [3] 0.141 | [5] -0.072

SORBS3 (UniProt O60504)
inactive: ibrutinib 0.13 | [2] 0.083 | [3] -0.057 | [4] -0.172

SLC9B2 (UniProt Q86UD5)
inactive: [2] 0.089

SMYD3 (UniProt Q9H7B4)
inactive: ibrutinib -0.08 | [1] -0.01 | ralimetinib 0.276 | [2] 0.205 | [3] -0.385 | [6] 0.136 | [4] 0.003 | [5] 0.131

SOD3 (UniProt P08294)
inactive: [1] 0.087 | [5] 0.175

Reprinted at random: 3 entries already listed, in no set order.
SLC9B2 (UniProt Q86UD5)
inactive: [2] 0.089

SOD3 (UniProt P08294)
inactive: [1] 0.087 | [5] 0.175

SMTN isoform 6 (UniProt P53814)
inactive: [2] 0.06 | [3] 0.141 | [5] -0.072

Later entries:

SLC9A8 isoform 2 (UniProt Q9Y2E8)
inactive: ibrutinib -0.048 | [1] 0.006 | [2] -0.005 | [3] -0.029 | [4] 0.012 | [5] 0.003

SMAGP (UniProt Q0VAQ4)
inactive: ibrutinib 0.005 | [1] -0.366 | [2] -0.235 | [4] 0.074 | [5] 0.43

SMUG1 (UniProt Q53HV7)
inactive: [4] 0.001

SMAD3 (UniProt P84022)
inactive: [1] -0.009 | ralimetinib -0.066 | [6] 0.175 | [5] 0.009
